Test results published in US20170165295A1, “COMPOSITION FOR PREVENTING, ALLEVIATING OR TREATING CONSTIPATION, CONTAINING HIGH HARDNESS MINERAL WATER PREPARED FROM DEEP OCEAN WATER OR DESALINATED GROUNDWATER” (ARIBIO INC., priority 2012, published 2017).
Counter-ions that a name gives are not always drawn.

System: loperamide-induced constipated rats
Assay: Gastrointestinal charcoal transit ratio in loperamide-induced constipated rats
Assay type: in vivo
Conditions: at sacrifice after 6th administration; mean ± S.D. of nine rats
Method: 6-week-old rats (SLC, Japan) were used for an experiment after acclimatization to new environments for 7 days. Five rats were raised per cage at 20-25° C. and 45-50% humidity. The light-dark cycle was 12 hr: 12 hr, and water and food were freely available. The rats were classified into six groups (nine rats per group, a total of 54 rats) based on the body weight thereof. Specific groups are as follows:
Administration of Test Material Magnesium hydroxide (Mg(OH)2; MagMill™) was purchased from Samnam Pharm. In order to protect test materials from light and moisture, the test materials were stored in a refrigerator at 4° C. The mineral water was orally administered at 10 ml/kg for each time, at an interval of 6 hours (30 ml/kg/day), three times a day, for a total of six days. The administration for each time was conducted 1 hour after administration of loperamide 3 mg/kg. […]
The gastrointestinal propulsion of the charcoal meal was checked by the method disclosed in Sagar et al. BMC Complement Altern Med, 2005; 5:18, with minor modification. […] Thirty minutes after charcoal meal ingestion, the animals of each group were sacrificed, and the total small intestine length (from pyloric sphincter to appendix) and the charcoal meal transit distance were measured. The gastrointestinal charcoal transit ratio was calculated by equation 3 below: […]

SMILES | Total small intestine length [cm]
CN(C)C(=O)C(CCN1CCC(O)(c2ccc(Cl)cc2)CC1)(c1ccccc1)c1ccccc1 [Loperamide, loperamide hydrochloride] | 121.40 ± 2.90
[Mg+2].[OH-].[OH-] [Mg(OH)2, Magnesium hydroxide] | 124.81 ± 6.10
